# Experimental data published in the supplement of paper PMC10849652.
# Chains of the proteins cited; added tags and fusions are not shown. Lines headed by an entry give the natural chain unless they say otherwise; changes in a name come on top.
# UniProt Q8WV19: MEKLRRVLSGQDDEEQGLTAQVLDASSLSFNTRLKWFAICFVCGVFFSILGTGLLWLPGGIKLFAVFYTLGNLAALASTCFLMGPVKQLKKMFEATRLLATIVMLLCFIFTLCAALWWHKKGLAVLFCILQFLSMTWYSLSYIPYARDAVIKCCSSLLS
# UniProt Q96EP9: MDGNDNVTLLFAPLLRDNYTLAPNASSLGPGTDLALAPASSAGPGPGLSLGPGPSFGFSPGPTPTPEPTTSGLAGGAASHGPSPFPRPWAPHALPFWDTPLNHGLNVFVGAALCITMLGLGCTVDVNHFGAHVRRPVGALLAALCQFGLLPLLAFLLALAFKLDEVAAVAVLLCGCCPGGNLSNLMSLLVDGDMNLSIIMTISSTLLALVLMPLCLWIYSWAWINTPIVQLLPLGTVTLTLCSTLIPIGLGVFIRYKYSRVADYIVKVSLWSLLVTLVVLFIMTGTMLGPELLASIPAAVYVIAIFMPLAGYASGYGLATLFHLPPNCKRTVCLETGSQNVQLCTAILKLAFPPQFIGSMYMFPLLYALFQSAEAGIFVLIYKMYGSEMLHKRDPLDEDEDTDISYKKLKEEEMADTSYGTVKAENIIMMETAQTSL
# UniProt Q8IYI0: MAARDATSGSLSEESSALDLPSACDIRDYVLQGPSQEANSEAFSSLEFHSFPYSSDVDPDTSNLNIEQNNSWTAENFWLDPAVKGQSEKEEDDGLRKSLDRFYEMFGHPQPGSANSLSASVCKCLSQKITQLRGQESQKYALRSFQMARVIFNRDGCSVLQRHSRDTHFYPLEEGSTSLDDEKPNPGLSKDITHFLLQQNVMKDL
# UniProt Q9UPS6, whole entry, looked up: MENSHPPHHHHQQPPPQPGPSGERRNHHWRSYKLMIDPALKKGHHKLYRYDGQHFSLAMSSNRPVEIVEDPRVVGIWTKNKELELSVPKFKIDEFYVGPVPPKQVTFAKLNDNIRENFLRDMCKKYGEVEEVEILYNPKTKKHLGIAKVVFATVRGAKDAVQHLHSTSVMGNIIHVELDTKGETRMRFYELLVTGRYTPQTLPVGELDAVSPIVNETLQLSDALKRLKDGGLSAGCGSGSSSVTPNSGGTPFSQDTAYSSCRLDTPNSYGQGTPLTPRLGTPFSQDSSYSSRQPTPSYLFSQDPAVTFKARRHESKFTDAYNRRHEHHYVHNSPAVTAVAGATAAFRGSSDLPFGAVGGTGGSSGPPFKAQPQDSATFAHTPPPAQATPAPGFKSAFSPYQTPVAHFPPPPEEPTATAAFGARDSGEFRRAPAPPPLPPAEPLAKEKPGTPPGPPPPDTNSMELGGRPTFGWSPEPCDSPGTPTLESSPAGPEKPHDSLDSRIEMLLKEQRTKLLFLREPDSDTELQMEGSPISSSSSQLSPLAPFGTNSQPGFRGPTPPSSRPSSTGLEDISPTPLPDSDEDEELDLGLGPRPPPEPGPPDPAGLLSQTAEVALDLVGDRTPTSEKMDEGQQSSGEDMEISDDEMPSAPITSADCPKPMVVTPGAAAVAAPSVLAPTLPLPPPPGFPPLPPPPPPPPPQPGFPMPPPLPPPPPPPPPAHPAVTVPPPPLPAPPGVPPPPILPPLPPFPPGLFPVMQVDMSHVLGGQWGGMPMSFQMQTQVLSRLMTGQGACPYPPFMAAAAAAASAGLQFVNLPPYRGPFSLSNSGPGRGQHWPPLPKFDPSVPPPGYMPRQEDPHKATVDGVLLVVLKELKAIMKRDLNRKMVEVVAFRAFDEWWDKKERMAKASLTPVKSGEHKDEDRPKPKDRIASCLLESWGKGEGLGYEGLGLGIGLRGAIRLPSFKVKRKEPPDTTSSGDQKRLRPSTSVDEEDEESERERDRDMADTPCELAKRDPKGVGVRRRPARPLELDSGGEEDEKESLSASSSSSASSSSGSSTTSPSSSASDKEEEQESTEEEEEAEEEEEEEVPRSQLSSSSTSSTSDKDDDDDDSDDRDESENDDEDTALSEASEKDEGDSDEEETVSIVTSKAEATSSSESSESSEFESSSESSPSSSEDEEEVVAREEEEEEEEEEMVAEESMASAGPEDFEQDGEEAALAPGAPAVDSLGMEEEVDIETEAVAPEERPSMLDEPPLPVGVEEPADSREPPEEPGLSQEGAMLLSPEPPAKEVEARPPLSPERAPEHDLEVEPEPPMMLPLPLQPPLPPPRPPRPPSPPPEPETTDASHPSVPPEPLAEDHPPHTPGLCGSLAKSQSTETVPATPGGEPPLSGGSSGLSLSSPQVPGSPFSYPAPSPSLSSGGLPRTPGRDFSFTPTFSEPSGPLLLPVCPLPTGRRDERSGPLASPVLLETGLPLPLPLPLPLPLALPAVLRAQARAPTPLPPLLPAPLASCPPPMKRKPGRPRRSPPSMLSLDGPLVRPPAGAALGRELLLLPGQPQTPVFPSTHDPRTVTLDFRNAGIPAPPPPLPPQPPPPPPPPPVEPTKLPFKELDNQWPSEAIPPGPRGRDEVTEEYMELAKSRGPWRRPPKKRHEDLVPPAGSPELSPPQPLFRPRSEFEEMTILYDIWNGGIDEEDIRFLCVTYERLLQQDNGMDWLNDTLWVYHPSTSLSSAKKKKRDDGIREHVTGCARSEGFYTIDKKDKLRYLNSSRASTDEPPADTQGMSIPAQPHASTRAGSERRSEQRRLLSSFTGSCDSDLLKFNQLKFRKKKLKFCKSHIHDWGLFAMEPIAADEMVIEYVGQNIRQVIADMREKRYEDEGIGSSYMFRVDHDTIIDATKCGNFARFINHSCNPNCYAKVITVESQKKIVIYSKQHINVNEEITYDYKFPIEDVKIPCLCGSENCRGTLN
# UniProt Q9H0K1: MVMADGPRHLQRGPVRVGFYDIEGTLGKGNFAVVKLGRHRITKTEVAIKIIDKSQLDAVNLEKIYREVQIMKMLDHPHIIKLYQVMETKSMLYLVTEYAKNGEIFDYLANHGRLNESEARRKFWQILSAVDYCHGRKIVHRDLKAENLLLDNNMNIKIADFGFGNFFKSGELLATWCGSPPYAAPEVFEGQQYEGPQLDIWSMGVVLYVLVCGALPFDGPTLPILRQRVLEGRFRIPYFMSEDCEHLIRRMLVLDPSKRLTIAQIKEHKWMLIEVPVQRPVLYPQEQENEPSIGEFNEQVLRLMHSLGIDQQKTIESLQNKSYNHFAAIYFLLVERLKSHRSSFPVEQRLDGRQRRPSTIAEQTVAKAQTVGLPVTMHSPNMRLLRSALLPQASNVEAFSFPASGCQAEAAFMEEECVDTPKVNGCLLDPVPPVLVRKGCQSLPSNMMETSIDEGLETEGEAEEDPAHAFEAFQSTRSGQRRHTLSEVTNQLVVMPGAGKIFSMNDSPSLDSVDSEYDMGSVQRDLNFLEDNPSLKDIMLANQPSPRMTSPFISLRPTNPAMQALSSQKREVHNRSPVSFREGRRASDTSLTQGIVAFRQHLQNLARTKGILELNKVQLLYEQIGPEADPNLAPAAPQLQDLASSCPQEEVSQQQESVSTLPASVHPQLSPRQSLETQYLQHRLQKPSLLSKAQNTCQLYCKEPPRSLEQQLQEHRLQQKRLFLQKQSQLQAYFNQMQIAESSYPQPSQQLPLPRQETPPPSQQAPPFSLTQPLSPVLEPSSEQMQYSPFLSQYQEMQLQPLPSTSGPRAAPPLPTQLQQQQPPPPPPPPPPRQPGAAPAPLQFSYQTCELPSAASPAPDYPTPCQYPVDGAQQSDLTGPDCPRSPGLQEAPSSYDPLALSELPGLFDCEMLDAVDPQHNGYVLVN
# UniProt Q8NDZ2: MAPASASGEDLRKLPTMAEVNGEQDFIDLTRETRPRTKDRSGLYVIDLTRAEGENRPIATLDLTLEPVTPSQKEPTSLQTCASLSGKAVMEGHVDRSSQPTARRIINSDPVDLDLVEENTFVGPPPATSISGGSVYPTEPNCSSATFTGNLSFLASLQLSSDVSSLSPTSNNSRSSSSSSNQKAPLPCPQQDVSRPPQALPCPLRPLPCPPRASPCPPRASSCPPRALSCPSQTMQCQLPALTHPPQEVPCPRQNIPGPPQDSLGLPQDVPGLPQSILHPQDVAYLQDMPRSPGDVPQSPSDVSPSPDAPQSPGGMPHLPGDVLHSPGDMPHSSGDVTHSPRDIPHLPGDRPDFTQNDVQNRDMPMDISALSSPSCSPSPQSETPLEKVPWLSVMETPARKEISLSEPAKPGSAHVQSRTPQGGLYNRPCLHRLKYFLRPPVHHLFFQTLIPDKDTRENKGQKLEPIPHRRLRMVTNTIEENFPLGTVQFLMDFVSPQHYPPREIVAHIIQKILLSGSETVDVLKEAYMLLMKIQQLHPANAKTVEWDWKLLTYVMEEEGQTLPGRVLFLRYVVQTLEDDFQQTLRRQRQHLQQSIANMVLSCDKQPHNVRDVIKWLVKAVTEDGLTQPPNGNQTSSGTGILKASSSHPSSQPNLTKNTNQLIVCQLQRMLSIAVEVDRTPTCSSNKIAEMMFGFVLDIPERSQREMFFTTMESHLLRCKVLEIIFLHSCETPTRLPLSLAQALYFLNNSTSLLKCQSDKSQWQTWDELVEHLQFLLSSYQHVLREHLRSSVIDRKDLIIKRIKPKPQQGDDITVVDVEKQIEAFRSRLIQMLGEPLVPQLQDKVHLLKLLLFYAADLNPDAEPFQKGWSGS
# UniProt Q96B97, whole entry, looked up: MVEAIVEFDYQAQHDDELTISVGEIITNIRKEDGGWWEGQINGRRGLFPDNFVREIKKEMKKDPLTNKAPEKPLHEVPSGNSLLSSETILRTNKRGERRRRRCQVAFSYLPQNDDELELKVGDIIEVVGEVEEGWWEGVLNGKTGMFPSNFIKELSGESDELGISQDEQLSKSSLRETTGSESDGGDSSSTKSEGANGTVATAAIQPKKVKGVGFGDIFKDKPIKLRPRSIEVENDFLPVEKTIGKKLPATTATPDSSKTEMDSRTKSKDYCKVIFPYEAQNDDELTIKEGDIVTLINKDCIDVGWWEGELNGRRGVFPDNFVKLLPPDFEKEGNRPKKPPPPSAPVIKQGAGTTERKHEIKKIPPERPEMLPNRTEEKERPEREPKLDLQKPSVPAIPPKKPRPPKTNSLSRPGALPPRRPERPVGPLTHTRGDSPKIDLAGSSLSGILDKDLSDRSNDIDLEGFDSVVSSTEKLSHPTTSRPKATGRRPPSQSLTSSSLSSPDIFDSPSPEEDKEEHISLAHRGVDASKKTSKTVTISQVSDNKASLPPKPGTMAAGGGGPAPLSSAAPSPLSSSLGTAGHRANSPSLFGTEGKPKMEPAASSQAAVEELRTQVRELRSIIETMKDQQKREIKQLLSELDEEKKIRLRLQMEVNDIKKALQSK
# UniProt Q9UIU6: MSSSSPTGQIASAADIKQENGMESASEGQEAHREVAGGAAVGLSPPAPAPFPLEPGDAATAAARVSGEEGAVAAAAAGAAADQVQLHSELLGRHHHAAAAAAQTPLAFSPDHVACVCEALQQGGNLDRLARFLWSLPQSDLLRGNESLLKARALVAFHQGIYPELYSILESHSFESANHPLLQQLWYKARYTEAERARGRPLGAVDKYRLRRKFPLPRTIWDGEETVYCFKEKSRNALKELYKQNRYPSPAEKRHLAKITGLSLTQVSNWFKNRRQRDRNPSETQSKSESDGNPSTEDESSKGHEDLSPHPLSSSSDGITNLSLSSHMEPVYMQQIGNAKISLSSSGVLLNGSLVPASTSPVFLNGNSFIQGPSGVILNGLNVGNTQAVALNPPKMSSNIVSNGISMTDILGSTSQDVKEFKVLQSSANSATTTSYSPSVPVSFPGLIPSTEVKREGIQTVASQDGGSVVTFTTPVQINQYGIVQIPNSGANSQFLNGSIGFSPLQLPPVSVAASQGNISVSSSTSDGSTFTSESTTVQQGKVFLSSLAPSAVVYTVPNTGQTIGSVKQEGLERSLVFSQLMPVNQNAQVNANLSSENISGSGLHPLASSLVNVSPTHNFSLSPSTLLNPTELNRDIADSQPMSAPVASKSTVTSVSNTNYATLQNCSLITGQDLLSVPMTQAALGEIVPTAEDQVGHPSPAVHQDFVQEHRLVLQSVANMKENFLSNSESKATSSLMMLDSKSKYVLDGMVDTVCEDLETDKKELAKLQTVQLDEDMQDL
# UniProt Q9Y6P5: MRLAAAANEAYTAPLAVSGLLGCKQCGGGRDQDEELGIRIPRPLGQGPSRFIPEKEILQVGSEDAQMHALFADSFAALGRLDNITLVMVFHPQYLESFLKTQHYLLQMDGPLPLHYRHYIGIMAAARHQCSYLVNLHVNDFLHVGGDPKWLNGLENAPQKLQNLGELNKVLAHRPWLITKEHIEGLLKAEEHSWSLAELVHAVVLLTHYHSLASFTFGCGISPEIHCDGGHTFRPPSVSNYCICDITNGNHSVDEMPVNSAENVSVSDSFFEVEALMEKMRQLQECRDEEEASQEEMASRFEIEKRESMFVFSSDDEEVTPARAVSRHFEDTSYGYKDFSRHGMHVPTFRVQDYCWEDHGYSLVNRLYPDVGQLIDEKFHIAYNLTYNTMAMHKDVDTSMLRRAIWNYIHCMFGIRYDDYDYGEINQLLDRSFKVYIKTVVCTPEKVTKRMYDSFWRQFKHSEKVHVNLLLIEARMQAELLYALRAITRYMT
# Some of the results follow.
# Assays:
# Assay in all cases: log2 fold change, soluble protein after heating vs DMSO (PISA); higher = thermal stabilisation; K562 lysate, 10 uM; active = over 0.2 and 3.5 SD of the protein, either way, in both replicates (recomputed)
# [1] = compound: O=C1NC(=O)C(c2cnc3ccccn23)=C1c1cn2c3c(cc(F)cc13)CN(C(=O)N1CCCCC1)CC2
# Procedure, shortened: (§1)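 To prepare the extract, K562 pellets were dounce-homogenised in PBS pH 7.4 with 1 mM MgCl2, giving crude material at 1 mg/mL protein. This was treated with 10 μM compound for 30 min, then heated in aliquots for 3 min over 48°C-58°C before pooling and addition of NP-40 to 0.5% at 4°C. Centrifugation at 21,000xg for 90 min left soluble protein in the supernatant, which TMTpro 16plex LC-MS/MS quantified with equalised channel sums. Results are log-two fold changes in thermal stability compared with solvent controls, from duplicates.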
# vorinostat = compound: O=C(CCCCCCC(=O)Nc1ccccc1)NO [vorinostat]
# Procedure, shortened: as §1
# silmitasertib = compound: O=C(O)c1ccc2c(c1)nc(Nc1cccc(Cl)c1)c1ccncc12 [silmitasertib]
# Procedure, shortened: as §1
# [2] = compound: NCC(=O)Nc1ccc(-n2nc(C(F)(F)F)cc2-c2ccc3c(ccc4ccccc43)c2)cc1
# Procedure, shortened: as §1
# entospletinib = compound: c1cn2cc(-c3ccc4cn[nH]c4c3)nc(Nc3ccc(N4CCOCC4)cc3)c2n1 [entospletinib]
# Procedure, shortened: as §1
target,measurement,setting,value
SFT2D1 (UniProt Q8WV19),log2 fold change,[1],inactive: -0.025
SLC10A4 (UniProt Q96EP9),log2 fold change,vorinostat,inactive: -0.29
same,log2 fold change,silmitasertib,inactive: 0.164
SLC20A2 (UniProt Q08357),log2 fold change,[2],inactive: 0.051
same,log2 fold change,[1],inactive: -0.049
same,log2 fold change,entospletinib,inactive: 0.042
SIAE (UniProt Q9HAT2),log2 fold change,[1],inactive: -0.082
same,log2 fold change,entospletinib,inactive: -0.012
SHLD1 (UniProt Q8IYI0),log2 fold change,entospletinib,inactive: -0.049
SETD1B (UniProt Q9UPS6),log2 fold change,[2],inactive: 0.077
same,log2 fold change,[1],inactive: 0.057
SF1 (UniProt H7C0N4),log2 fold change,[2],inactive: 0.081
same,log2 fold change,[1],inactive: 0.114
same,log2 fold change,entospletinib,inactive: 0.065
SIK2 (UniProt Q9H0K1),log2 fold change,entospletinib,inactive: 0.097
SERPINA7 (UniProt P05543),log2 fold change,[2],inactive: 0.075
same,log2 fold change,entospletinib,inactive: -0.062
SIK3 (UniProt Q9Y2K2),log2 fold change,vorinostat,inactive: 0.051
same,log2 fold change,silmitasertib,inactive: 0.209
same,log2 fold change,[1],inactive: -0.02
same,log2 fold change,entospletinib,inactive: 0.06
SIMC1 (UniProt Q8NDZ2),log2 fold change,[2],inactive: -0.141
same,log2 fold change,[1],inactive: 0.242
same,log2 fold change,entospletinib,inactive: 0.417
SLC10A3 (UniProt P09131),log2 fold change,[2],inactive: -0.177
same,log2 fold change,entospletinib,inactive: -0.046
SLAIN2 (UniProt D6RIF6),log2 fold change,[1],inactive: -0.092
SH3KBP1 (UniProt Q96B97),log2 fold change,vorinostat,inactive: 0.005
same,log2 fold change,silmitasertib,inactive: -0.012
same,log2 fold change,[1],inactive: 0.123
same,log2 fold change,entospletinib,inactive: -0.066
SIX4 (UniProt Q9UIU6),log2 fold change,vorinostat,inactive: 0.038
same,log2 fold change,silmitasertib,inactive: 0.017
same,log2 fold change,entospletinib,inactive: -0.054
SESN1 isoform 2 (UniProt Q9Y6P5),log2 fold change,vorinostat,inactive: -0.38
same,log2 fold change,silmitasertib,inactive: -0.018
same,log2 fold change,[1],inactive: 0.067
same,log2 fold change,entospletinib,inactive: -0.128

# Shown as tab-separated lines: entries from further up.
target	measurement	setting	value
SLC10A4 (UniProt Q96EP9)	log2 fold change	silmitasertib	inactive: 0.164
SIMC1 (UniProt Q8NDZ2)	log2 fold change	[1]	inactive: 0.242
SESN1 isoform 2 (UniProt Q9Y6P5)	log2 fold change	silmitasertib	inactive: -0.018
